Assay results published in the supplement of paper PMC10849652.
The other results are listed elsewhere or left out.

Chains of the proteins cited; added tags and fusions are not shown. Lines headed by an entry give the natural chain unless they say otherwise; changes in a name come on top.
UniProt Q15771: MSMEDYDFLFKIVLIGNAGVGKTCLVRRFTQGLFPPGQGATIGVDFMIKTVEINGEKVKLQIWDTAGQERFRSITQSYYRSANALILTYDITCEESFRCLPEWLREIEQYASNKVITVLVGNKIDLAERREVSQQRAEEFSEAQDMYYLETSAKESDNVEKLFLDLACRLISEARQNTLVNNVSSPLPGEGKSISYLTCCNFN
UniProt O75943: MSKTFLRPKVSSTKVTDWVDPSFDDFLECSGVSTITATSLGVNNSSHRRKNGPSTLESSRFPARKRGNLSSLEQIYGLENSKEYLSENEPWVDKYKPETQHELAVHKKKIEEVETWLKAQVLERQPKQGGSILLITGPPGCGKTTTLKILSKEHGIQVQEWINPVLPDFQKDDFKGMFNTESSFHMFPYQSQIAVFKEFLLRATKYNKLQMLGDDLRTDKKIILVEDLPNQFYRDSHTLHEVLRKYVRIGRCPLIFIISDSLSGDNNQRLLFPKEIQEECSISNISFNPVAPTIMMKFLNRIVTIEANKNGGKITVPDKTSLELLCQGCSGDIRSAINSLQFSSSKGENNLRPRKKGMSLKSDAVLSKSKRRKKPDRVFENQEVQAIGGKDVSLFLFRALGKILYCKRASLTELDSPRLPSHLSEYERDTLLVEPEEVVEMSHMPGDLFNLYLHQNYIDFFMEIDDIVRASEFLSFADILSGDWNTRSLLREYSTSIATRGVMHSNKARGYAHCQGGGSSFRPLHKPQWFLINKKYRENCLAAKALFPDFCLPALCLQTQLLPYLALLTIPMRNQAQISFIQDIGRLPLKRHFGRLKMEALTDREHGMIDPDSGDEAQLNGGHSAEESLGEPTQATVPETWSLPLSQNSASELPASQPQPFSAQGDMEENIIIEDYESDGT
UniProt O75154: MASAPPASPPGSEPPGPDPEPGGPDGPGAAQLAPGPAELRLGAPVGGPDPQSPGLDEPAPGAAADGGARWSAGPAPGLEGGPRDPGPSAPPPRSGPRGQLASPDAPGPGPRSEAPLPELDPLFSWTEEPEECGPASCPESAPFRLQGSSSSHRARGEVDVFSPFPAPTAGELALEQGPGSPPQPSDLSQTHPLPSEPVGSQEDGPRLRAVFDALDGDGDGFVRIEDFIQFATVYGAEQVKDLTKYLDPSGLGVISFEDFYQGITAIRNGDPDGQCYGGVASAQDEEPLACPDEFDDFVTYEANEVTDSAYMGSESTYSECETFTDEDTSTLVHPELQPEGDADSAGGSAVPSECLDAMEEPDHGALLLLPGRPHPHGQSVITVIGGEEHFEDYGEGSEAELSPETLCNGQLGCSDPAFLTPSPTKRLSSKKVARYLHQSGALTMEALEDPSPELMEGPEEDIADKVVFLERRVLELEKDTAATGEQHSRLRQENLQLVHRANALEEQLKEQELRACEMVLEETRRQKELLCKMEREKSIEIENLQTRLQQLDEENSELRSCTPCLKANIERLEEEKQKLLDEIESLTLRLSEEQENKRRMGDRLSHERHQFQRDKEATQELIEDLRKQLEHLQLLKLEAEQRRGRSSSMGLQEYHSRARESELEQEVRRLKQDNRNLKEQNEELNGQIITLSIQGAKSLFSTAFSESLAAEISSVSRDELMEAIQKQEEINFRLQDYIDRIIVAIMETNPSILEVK
UniProt Q9HD47: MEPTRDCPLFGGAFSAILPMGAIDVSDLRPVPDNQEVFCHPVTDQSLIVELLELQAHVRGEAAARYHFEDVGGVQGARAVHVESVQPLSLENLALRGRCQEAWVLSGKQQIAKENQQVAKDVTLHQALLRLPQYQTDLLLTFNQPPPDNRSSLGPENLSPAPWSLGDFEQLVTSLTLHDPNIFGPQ
UniProt Q2PPJ7: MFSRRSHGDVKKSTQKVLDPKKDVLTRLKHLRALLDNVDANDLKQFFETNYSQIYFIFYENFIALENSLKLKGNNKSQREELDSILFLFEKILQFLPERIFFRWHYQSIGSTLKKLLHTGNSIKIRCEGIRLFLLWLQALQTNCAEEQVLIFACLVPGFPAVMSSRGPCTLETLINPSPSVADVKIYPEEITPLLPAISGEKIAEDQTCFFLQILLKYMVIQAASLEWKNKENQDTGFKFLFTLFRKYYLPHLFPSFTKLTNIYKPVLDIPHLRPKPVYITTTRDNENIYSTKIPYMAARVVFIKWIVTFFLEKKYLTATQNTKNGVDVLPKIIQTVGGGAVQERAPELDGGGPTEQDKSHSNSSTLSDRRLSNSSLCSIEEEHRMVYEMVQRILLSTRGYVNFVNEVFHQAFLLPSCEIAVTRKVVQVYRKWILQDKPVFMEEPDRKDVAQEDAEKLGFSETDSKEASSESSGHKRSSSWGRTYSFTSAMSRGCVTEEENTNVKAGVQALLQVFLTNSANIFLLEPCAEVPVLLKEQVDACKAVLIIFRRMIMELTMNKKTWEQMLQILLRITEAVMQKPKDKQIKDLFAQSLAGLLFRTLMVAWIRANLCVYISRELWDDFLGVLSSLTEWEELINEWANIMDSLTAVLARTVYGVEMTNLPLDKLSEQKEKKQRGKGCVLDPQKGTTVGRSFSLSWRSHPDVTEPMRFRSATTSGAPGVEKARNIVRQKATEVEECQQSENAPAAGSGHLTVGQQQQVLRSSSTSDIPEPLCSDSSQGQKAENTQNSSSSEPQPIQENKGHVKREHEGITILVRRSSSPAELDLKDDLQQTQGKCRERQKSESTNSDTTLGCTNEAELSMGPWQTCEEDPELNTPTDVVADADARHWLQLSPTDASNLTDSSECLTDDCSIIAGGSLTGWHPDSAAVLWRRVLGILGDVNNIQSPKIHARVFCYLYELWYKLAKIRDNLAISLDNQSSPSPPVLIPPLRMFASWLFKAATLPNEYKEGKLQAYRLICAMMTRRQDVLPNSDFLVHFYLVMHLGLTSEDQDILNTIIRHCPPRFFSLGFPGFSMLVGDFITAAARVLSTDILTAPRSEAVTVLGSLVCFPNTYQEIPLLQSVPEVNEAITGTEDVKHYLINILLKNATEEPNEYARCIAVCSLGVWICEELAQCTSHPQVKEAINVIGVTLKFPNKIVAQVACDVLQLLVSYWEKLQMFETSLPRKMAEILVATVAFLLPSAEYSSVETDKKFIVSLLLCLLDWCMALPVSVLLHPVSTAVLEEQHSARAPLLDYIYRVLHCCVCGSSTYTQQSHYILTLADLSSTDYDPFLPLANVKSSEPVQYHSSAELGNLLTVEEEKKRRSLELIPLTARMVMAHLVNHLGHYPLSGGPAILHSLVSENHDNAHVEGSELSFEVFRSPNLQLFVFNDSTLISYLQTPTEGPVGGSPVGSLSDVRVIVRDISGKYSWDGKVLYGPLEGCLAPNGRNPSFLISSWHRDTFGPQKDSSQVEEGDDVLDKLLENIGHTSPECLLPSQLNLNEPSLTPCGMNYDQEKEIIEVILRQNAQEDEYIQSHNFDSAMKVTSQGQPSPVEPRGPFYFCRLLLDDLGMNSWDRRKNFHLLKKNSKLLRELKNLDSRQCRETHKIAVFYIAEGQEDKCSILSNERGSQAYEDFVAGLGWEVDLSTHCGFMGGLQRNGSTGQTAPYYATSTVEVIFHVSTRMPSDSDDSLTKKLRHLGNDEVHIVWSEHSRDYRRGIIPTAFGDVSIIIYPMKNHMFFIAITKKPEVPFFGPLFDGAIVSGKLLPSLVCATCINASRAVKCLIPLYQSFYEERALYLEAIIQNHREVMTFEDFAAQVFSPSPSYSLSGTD
UniProt Q9NX57: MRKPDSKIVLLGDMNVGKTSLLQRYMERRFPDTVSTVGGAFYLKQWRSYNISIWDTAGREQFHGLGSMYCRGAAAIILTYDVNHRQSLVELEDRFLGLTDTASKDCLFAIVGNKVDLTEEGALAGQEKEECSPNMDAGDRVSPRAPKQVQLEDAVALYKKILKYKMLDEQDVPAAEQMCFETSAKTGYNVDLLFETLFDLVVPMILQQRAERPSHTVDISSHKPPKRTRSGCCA
UniProt Q96DA2: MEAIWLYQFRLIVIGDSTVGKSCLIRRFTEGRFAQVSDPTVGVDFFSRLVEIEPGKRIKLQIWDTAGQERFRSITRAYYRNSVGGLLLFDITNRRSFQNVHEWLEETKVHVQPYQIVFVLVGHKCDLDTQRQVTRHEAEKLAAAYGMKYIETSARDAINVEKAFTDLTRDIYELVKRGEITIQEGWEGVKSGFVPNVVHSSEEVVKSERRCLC
UniProt Q86YS3: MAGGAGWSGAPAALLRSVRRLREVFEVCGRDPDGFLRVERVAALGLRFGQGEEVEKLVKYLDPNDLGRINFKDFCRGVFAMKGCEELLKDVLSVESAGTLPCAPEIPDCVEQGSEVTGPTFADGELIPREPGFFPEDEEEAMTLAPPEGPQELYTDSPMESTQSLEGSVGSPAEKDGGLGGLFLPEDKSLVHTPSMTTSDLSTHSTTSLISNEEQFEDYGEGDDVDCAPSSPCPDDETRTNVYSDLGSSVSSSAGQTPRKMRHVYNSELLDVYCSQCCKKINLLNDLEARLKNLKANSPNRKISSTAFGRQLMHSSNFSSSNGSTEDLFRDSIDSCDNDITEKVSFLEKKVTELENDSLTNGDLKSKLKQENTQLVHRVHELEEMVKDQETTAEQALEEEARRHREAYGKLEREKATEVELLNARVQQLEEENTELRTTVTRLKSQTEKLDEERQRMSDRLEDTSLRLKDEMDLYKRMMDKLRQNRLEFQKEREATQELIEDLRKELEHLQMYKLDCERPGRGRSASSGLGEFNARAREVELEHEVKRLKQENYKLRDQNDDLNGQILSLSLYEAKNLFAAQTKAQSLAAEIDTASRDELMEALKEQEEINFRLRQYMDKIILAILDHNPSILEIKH
UniProt P52306: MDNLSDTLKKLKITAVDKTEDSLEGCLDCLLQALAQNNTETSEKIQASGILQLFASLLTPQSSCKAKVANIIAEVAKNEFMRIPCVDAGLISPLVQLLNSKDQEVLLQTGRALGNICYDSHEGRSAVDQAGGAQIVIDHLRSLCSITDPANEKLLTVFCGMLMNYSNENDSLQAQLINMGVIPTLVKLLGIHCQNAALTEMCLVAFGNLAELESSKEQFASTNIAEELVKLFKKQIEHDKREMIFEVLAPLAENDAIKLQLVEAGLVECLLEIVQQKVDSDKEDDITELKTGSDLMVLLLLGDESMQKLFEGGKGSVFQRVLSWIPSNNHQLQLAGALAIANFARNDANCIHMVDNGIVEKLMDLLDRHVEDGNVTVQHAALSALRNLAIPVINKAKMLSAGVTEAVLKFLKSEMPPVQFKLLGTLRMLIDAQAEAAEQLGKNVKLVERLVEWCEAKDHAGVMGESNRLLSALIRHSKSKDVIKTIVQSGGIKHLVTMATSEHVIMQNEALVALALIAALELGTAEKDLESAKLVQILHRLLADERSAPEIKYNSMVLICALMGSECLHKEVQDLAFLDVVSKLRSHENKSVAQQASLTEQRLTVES
UniProt Q9ULZ3, whole entry, looked up: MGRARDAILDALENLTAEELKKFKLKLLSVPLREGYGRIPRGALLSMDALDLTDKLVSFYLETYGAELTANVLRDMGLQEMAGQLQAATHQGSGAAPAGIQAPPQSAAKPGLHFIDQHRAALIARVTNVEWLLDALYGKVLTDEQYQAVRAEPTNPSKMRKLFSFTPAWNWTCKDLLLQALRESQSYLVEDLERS
UniProt O00194: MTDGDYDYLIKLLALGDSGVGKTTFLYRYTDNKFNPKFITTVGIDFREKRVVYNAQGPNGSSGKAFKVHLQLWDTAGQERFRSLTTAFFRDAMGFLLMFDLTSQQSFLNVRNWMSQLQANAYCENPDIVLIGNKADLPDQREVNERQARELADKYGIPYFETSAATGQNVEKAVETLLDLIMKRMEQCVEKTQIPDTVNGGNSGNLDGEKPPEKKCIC

Key:
Assay in all cases: log2 fold change, soluble protein after heating vs DMSO (PISA); higher = thermal stabilisation; K562 lysate, 10 uM; active = over 0.2 and 3.5 SD of the protein, either way, in both replicates (recomputed)
[1] = compound: CN1CC[C@H](c2c(O)cc(O)c3c(=O)cc(-c4ccccc4Cl)oc23)[C@H](O)C1 [alvocidib]
Method in brief: (§1)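 To prepare the extract, K562 pellets were dounce-homogenised in PBS pH 7.4 with 1 mM MgCl2, giving crude material at 1 mg/mL protein. This was treated with 10 μM compound for 30 min, then heated in aliquots for 3 min over 48°C-58°C before pooling and addition of NP-40 to 0.5% at 4°C. Centrifugation at 21,000xg for 90 min left soluble protein in the supernatant, which TMTpro 16plex LC-MS/MS quantified with equalised channel sums. Results are log-two fold changes in thermal stability compared with solvent controls, from duplicates.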

[2] = compound: CNC(=O)C1=CC=CC=C1NC2=NC(=NC=C2Cl)NC3=C(C=C(C=C3)N4CCOCC4)OC
Method in brief: as §1

[3] = compound: CNC(=O)c1ccc(Nc2ncc(C(F)(F)F)c(NCc3nccnc3N(C)S(C)(=O)=O)n2)cc1 [defactinib]
Method in brief: as §1

[4] = compound: CNc1nc(-c2ccc3c(N)n[nH]c3c2)cc(N2C[C@@H](C(=O)NC3CCCCC3)CC[C@H]2C)n1
Method in brief: as §1

[5] = compound: COC(=O)N[C@@H](C)CNc1nccc(-c2cn(C(C)C)nc2-c2cc(Cl)cc(NS(C)(=O)=O)c2F)n1 [encorafenib]
Method in brief: as §1

[6] = compound: COC(=O)[C@H](CCSC)NC(=O)C1=C(C=C(C=C1)NC[C@H](CS)N)C2=CC=CC=C2
Method in brief: as §1

[7] = compound: CS(=O)(=O)N1CCN(Cc2cc3nc(-c4cccc5[nH]ncc45)nc(N4CCOCC4)c3s2)CC1 [pictilisib]
Method in brief: as §1

[8] = compound: C[C@@H](Oc1cc(-c2cnn(C3CCNCC3)c2)cnc1N)c1c(Cl)ccc(F)c1Cl [crizotinib]
Method in brief: as §1

[9] = compound: C[C@H](C1=CC=C(C=C1)C(=O)NC2=C3C=CNC3=NC=C2)N
Method in brief: as §1

[10] = compound: C[C@H](Nc1ncnc2nc[nH]c12)c1cc2cccc(Cl)c2c(=O)n1-c1ccccc1 [duvelisib]
Method in brief: as §1

[11] = compound: Cc1cc(Nc2cc(CN3CCOCC3)c3nc(C)c(Cc4ccc(Cl)cc4F)n3n2)n[nH]1 [gandotinib]
Method in brief: as §1

[12] = compound: Cc1cc(Nc2cc(N3CCN(C)CC3)nc(Sc3ccc(NC(=O)C4CC4)cc3)n2)n[nH]1 [tozasertib]
Method in brief: as §1

[13] = compound: Cc1ccc(-n2nc(C(C)(C)C)cc2NC(=O)Nc2ccc(OCCN3CCOCC3)c3ccccc23)cc1 [doramapimod]
Method in brief: as §1

[14] = compound: Cc1ccc(NC(=O)c2ccc(CN3CC[C@H](N(C)C)C3)c(C(F)(F)F)c2)cc1Nc1nccc(-c2cncnc2)n1 [bafetinib]
Method in brief: as §1

[15] = compound: Cc1cccc(CC(=O)N2CCc3c2ccc(-c2cn(C)c4ncnc(N)c24)c3F)n1
Method in brief: as §1

[16] = compound: CN1CCc2c(c3ccccc3n2Cc2ccc(C(=O)NO)cc2)C1 [Tubastatin A]
Method in brief: as §1

[17] = compound: COc1cc(Nc2ncc3c(n2)-c2ccc(Cl)cc2C(c2c(F)cccc2OC)=NC3)ccc1C(=O)O [alisertib]
Method in brief: as §1

[18] = compound: COc1cc2ncnc(Nc3ccc(F)c(Cl)c3)c2cc1OCCCN1CCOCC1 [gefitinib]
Method in brief: as §1

[19] = compound: COc1cc2nc(-c3cc(F)ccc3O)nc(N[C@@H]3CNC[C@H]3C(C)(C)O)c2cc1OC
Method in brief: as §1

[20] = compound: CS(=O)(=O)CCNCc1ccc(-c2ccc3ncnc(Nc4ccc(OCc5cccc(F)c5)c(Cl)c4)c3c2)o1 [lapatinib]
Method in brief: as §1

Measured: log2 fold change

RAB30 (UniProt Q15771)
inactive: [1] -0.009 | [2] 0.137 | [3] 0.072 | [4] -0.205 | [5] 0.068 | [6] -0.136 | [7] 0.003 | [8] 0.015 | [9] 0.003 | [10] 0.005 | [11] 0.015 | [12] 0.081 | [13] 0.022 | [14] -0.036 | [15] 0.124

RAD17 (UniProt O75943)
inactive: [1] -0.24 | [16] -0.041 | [3] 0.111 | [4] 0.154 | [5] 0.094 | [6] 0.026 | [17] 0.029 | [18] 0.022 | [7] -0.019 | [8] -0.01 | [9] 0.021 | [10] -0.027 | [11] -0.194 | [12] 0.005 | [13] -0.015 | [14] 0 | [15] -0.055

RAC3 (UniProt P60763)
inactive: [1] 0.031 | [2] 0.021 | [3] -0.072 | [5] 0.058 | [6] -0.072 | [8] 0.031 | [9] 0.107 | [11] -0.138 | [12] 0.119 | [13] 0.002 | [15] 0.048

RAB11FIP3 isoform 3 (UniProt O75154)
inactive: [16] 0.09 | [2] 0.183 | [4] 0.059 | [5] 0.023 | [6] -0.251 | [19] 0.072 | [20] -0.112 | [10] -0.128 | [12] 0.14

QARS1, A0A0U1RR66
inactive: [19] -0.071 | [20] -0.213

RANGRF (UniProt Q9HD47)
inactive: [16] -0.217 | [2] 0.01 | [4] 0.051 | [19] -0.058 | [20] 0.035 | [8] -0.032 | [10] -0.237 | [13] -0.006

RALGAPA2 (UniProt Q2PPJ7)
inactive: [1] -0.026 | [19] 0.103 | [20] -0.142 | [8] -0.105 | [9] -0.014 | [11] -0.101 | [13] -0.027 | [15] 0.03

RAB20 (UniProt Q9NX57)
inactive: [16] 0.133 | [2] -0.005 | [3] -0.035 | [4] 0.142 | [5] -0.052 | [6] 0.038 | [17] 0.05 | [19] -0.012 | [18] -0.039 | [20] -0.141 | [7] 0.038 | [8] 0.004 | [10] 0.018 | [12] 0.013 | [13] 0.053 | [14] -0.023

QSER1, A0A3B3IRW6
inactive: [16] -0.122 | [2] 0.014 | [3] 0.019 | [4] -0.035 | [5] 0.059 | [6] 0.183 | [17] 0.025 | [19] -0.004 | [18] -0.021 | [20] -0.04 | [8] -0.072 | [10] 0.005 | [12] -0.033 | [13] 0

RAB39B (UniProt Q96DA2)
inactive: [1] -0.675 | [7] -0.063 | [9] -1.16 | [11] 0.467 | [14] -0.206 | [15] 0.566

RAB11FIP4 isoform 2 (UniProt Q86YS3)
inactive: [16] -0.198

RAP1GDS1 isoform 4 (UniProt P52306)
inactive: [1] -0.074 | [19] 0.054 | [20] 0.029 | [7] 0.118 | [9] -0.304 | [11] 0.011 | [14] -0.133 | [15] -0.046

2 consecutive entries already listed, for reference:
QSER1, A0A3B3IRW6
inactive: [16] -0.122 | [2] 0.014 | [3] 0.019 | [4] -0.035 | [5] 0.059 | [6] 0.183 | [17] 0.025 | [19] -0.004 | [18] -0.021 | [20] -0.04 | [8] -0.072 | [10] 0.005 | [12] -0.033 | [13] 0

RAB39B (UniProt Q96DA2)
inactive: [1] -0.675 | [7] -0.063 | [9] -1.16 | [11] 0.467 | [14] -0.206 | [15] 0.566

Additional records:

RACK1 (UniProt D6RHH4)
inactive: [1] 0.028 | [3] 0.041 | [7] 0.011 | [9] -0.307 | [11] -0.054 | [14] -0.17 | [15] 0.162

PYCARD isoform 2 (UniProt Q9ULZ3)
inactive: [1] -0.139 | [16] -0.036 | [2] -0.054 | [19] -0.149 | [20] -0.135 | [7] -0.003 | [8] 0.165 | [9] 0.018 | [11] -0.126 | [13] 0.02 | [14] 0.127 | [15] 0.013

R3HDM2 (UniProt B5MCU0)
inactive: [16] -0.176 | [2] -0.132 | [5] 0.068 | [6] -0.2 | [8] 0.014 | [12] 0.036 | [13] 0.037

RAB27B (UniProt O00194)
inactive: [1] -0.178 | [2] -0.024 | [3] 0.043 | [4] -0.069 | [5] 0.018 | [6] -0.063 | [17] -0.007 | [19] 0.152 | [18] -0.091 | [20] -0.013 | [9] 0.243 | [10] 0.117 | [11] 0.122 | [12] -0.039 | [15] 0.06
